In patent US11921020B2, “Method of purifying tumor cells using shear stress” (UNIVERSITY OF IOWA RESEARCH FOUNDATION, priority 2011, dated 2024):
At least one structure is not confirmed: it was looked up by name or label, or the drawing left a doubt.

System: R545 melanoma cells
Test: Fluid shear stress protocol, viability of doxycycline-dependent H-Ras expressing melanoma cells
Type: cell-based, mouse
Details: cultured two passages with 2 μg/mL doxycycline, 250 μL/sec

## C[C@H]1c2cccc(O)c2C(=O)C2=C(O)[C@]3(O)C(=O)C(C(N)=O)=C(O)[C@@H](N(C)C)[C@@H]3[C@@H](O)[C@@H]21 [doxycycline]
  resistance to FSS: increased resistance to FSS
